# Test results: the supplement of paper PMC8728848
# Some of the results follow.
# B1: AFL6 (Aspergillus fumigatus), Q4WKJ1 (protein)
# chain: MSFHLTAEDIRIEDGHRLVARLRNADGDLQDASIDLNTCLGNDNGHFQWDGVDFSHSAQDVHFAIEGGGQVPVLRAQLANQDGEFQDADVNLSERIENINGEFVFH
# Tests used:
# Assay in all cases: glycan array binding signal (z-score within array); higher = stronger binding
# Details in all cases: glycan notation: IUPAC condensed, linker removed
# [1] = biological target: Glc(b1-4)Glc
# Method in brief: (§1)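 The binding signal is a Z-score computed within each array and averaged over linkers. Arrays of the same protein sequence at different concentrations or buffers were also averaged together. Data originate from 3228 arrays in the Consortium for Functional Glycomics database, kept only where the protein sequence was available.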
# [2] = biological target: Glc(b1-6)Glc
# Method in brief: as §1
# [3] = biological target: GlcA(b1-3)Gal
# Method in brief: as §1
# [4] = biological target: GlcA(b1-3)GlcNAc
# Method in brief: as §1
# [5] = biological target: GlcA(b1-6)Gal
# Method in brief: as §1
# [6] = biological target: GlcA3S(b1-3)Gal(b1-4)GlcNAc(b1-2)Man
# Method in brief: as §1
# [7] = biological target: GlcA3S(b1-3)Gal(b1-4)GlcNAc(b1-3)Gal(b1-4)Glc
# Method in brief: as §1
# [8] = biological target: GlcNAc(a1-3)Gal(b1-4)GlcNAc
# Method in brief: as §1
# [9] = biological target: GlcNAc(a1-4)Gal(b1-3)GlcNAc
# Method in brief: as §1
# [10] = biological target: GlcNAc(a1-4)Gal(b1-4)GalNAc
# Method in brief: as §1
# [11] = biological target: GlcNAc(a1-4)Gal(b1-4)GlcNAc
# Method in brief: as §1
# [12] = biological target: GlcNAc(a1-4)Gal(b1-4)GlcNAc(b1-3)Gal(b1-4)Glc
# Method in brief: as §1
# [13] = biological target: GlcNAc(a1-4)Gal(b1-4)GlcNAc(b1-3)Gal(b1-4)GlcNAc
# Method in brief: as §1
# [14] = biological target: GlcNAc(a1-4)Gal(b1-4)GlcNAc(b1-3)Gal(b1-4)GlcNAc(b1-3)Gal(b1-4)GlcNAc
# Method in brief: as §1
# [15] = biological target: GlcNAc(a1-4)Gal(b1-4)GlcNAc(b1-3)Gal(b1-4)[Fuc(a1-3)]GlcNAc(b1-3)Gal(b1-4)[Fuc(a1-3)]GlcNAc
# Method in brief: as §1
# [16] = biological target: GlcNAc(a1-6)Gal(b1-4)GlcNAc
# Method in brief: as §1
# [17] = biological target: GlcNAc(b1-2)Gal(b1-3)GalNAc
# Method in brief: as §1
# [18] = biological target: GlcNAc(b1-2)Man(a1-3)[GlcNAc(b1-2)Man(a1-6)]Man(b1-4)GlcNAc(b1-4)GlcNAc
# Method in brief: as §1
# [19] = biological target: GlcNAc(b1-2)Man(a1-3)[GlcNAc(b1-2)Man(a1-6)]Man(b1-4)GlcNAc(b1-4)[Fuc(a1-6)]GlcNAc
# Method in brief: as §1
# [20] = biological target: GlcNAc(b1-2)Man(a1-3)[GlcNAc(b1-4)][GlcNAc(b1-2)Man(a1-6)]Man(b1-4)GlcNAc(b1-4)GlcNAc
# Method in brief: as §1
# [21] = biological target: GlcNAc(b1-2)Man(a1-3)[GlcNAc(b1-4)][GlcNAc(b1-2)Man(a1-6)]Man(b1-4)GlcNAc(b1-4)[Fuc(a1-6)]GlcNAc
# Method in brief: as §1
# [22] = biological target: GlcNAc(b1-2)[GlcNAc(b1-4)]Man(a1-3)[GlcNAc(b1-2)Man(a1-6)]Man(b1-4)GlcNAc(b1-4)GlcNAc
# Method in brief: as §1
# [23] = biological target: GlcNAc(b1-2)[GlcNAc(b1-4)]Man(a1-3)[GlcNAc(b1-4)][GlcNAc(b1-2)Man(a1-6)]Man(b1-4)GlcNAc(b1-4)GlcNAc
# Method in brief: as §1
# [24] = biological target: GlcNAc(b1-2)[GlcNAc(b1-4)]Man(a1-3)[GlcNAc(b1-4)][GlcNAc(b1-2)[GlcNAc(b1-6)]Man(a1-6)]Man(b1-4)GlcNAc(b1-4)GlcNAc
# Method in brief: as §1
# [25] = biological target: GlcNAc(b1-2)[GlcNAc(b1-4)]Man(a1-3)[GlcNAc(b1-4)][GlcNAc(b1-2)[GlcNAc(b1-6)]Man(a1-6)]Man(b1-4)GlcNAc(b1-4)[Fuc(a1-6)]GlcNAc
# Method in brief: as §1
# [26] = biological target: GlcNAc(b1-2)[GlcNAc(b1-6)]Man(a1-6)[GlcNAc(b1-2)Man(a1-3)]Man(b1-4)GlcNAc(b1-4)GlcNAc
# Method in brief: as §1
# [27] = biological target: GlcNAc(b1-2)[GlcNAc(b1-6)]Man(a1-6)[GlcNAc(b1-2)Man(a1-3)]Man(b1-4)GlcNAc(b1-4)[Fuc(a1-6)]GlcNAc
# Method in brief: as §1
# [28] = biological target: GlcNAc(b1-2)[GlcNAc(b1-6)]Man(a1-6)[GlcNAc(b1-4)][GlcNAc(b1-2)Man(a1-3)]Man(b1-4)GlcNAc(b1-4)GlcNAc
# Method in brief: as §1
# [29] = biological target: GlcNAc(b1-3)Fuc
# Method in brief: as §1
# [30] = biological target: GlcNAc(b1-3)Gal
# Method in brief: as §1
# [31] = biological target: GlcNAc(b1-3)Gal(b1-3)GalNAc
# Method in brief: as §1
# [32] = biological target: GlcNAc(b1-3)Gal(b1-4)Glc
# Method in brief: as §1
# [33] = biological target: GlcNAc(b1-3)Gal(b1-4)GlcNAc
# Method in brief: as §1
# [34] = biological target: GlcNAc(b1-3)Gal(b1-4)GlcNAc(b1-2)Man(a1-3)[GlcNAc(b1-3)Gal(b1-4)GlcNAc(b1-2)Man(a1-6)]Man(b1-4)GlcNAc(b1-4)GlcNAc
# Method in brief: as §1
# [35] = biological target: GlcNAc(b1-3)Gal(b1-4)GlcNAc(b1-2)Man(a1-3)[GlcNAc(b1-3)Gal(b1-4)GlcNAc(b1-2)Man(a1-6)]Man(b1-4)GlcNAc(b1-4)[Fuc(a1-6)]GlcNAc
# Method in brief: as §1
# [36] = biological target: GlcNAc(b1-3)Gal(b1-4)GlcNAc(b1-2)[GlcNAc(b1-3)Gal(b1-4)GlcNAc(b1-6)]Man(a1-6)[GlcNAc(b1-3)Gal(b1-4)GlcNAc(b1-2)Man(a1-3)]Man(b1-4)GlcNAc(b1-4)GlcNAc
# Method in brief: as §1
# [37] = biological target: GlcNAc(b1-3)Gal(b1-4)GlcNAc(b1-3)Gal(b1-4)GlcNAc
# Method in brief: as §1
# [38] = biological target: GlcNAc(b1-3)Gal(b1-4)GlcNAc(b1-3)Gal(b1-4)GlcNAc(b1-2)Man(a1-3)[GlcNAc(b1-3)Gal(b1-4)GlcNAc(b1-3)Gal(b1-4)GlcNAc(b1-2)Man(a1-6)]Man(b1-4)GlcNAc(b1-4)GlcNAc
# Method in brief: as §1
# [39] = biological target: GlcNAc(b1-3)Gal(b1-4)GlcNAc(b1-3)Gal(b1-4)GlcNAc(b1-2)Man(a1-3)[GlcNAc(b1-3)Gal(b1-4)GlcNAc(b1-3)Gal(b1-4)GlcNAc(b1-2)Man(a1-6)]Man(b1-4)GlcNAc(b1-4)[Fuc(a1-6)]GlcNAc
# Method in brief: as §1
# [40] = biological target: GlcNAc(b1-3)Gal(b1-4)GlcNAc(b1-3)Gal(b1-4)GlcNAc(b1-2)[GlcNAc(b1-3)Gal(b1-4)GlcNAc(b1-3)Gal(b1-4)GlcNAc(b1-6)]Man(a1-6)[GlcNAc(b1-3)Gal(b1-4)GlcNAc(b1-3)Gal(b1-4)GlcNAc(b1-2)Man(a1-3)]Man(b1-4)GlcNAc(b1-4)[Fuc(a1-6)]GlcNAc
# Method in brief: as §1
# [41] = biological target: GlcNAc(b1-3)Gal(b1-4)GlcNAc(b1-3)Gal(b1-4)GlcNAc(b1-3)Gal(b1-4)GlcNAc(b1-2)Man(a1-3)[GlcNAc(b1-3)Gal(b1-4)GlcNAc(b1-3)Gal(b1-4)GlcNAc(b1-3)Gal(b1-4)GlcNAc(b1-2)Man(a1-6)]Man(b1-4)GlcNAc(b1-4)GlcNAc
# Method in brief: as §1
# [42] = biological target: GlcNAc(b1-3)Gal(b1-4)GlcNAc(b1-3)Gal(b1-4)GlcNAc(b1-3)Gal(b1-4)GlcNAc(b1-2)Man(a1-3)[GlcNAc(b1-3)Gal(b1-4)GlcNAc(b1-3)Gal(b1-4)GlcNAc(b1-3)Gal(b1-4)GlcNAc(b1-2)Man(a1-6)]Man(b1-4)GlcNAc(b1-4)[Fuc(a1-6)]GlcNAc
# Method in brief: as §1
# [43] = biological target: GlcNAc(b1-3)Gal(b1-4)GlcNAc(b1-3)Gal(b1-4)GlcNAc(b1-3)Gal(b1-4)GlcNAc(b1-2)[GlcNAc(b1-3)Gal(b1-4)GlcNAc(b1-3)Gal(b1-4)GlcNAc(b1-3)Gal(b1-4)GlcNAc(b1-6)]Man(a1-6)[GlcNAc(b1-3)Gal(b1-4)GlcNAc(b1-3)Gal(b1-4)GlcNAc(b1-3)Gal(b1-4)GlcNAc(b1-2)Man(a1-3)]Man(b1-4)GlcNAc(b1-4)[Fuc(a1-6)]GlcNAc
# Method in brief: as §1
# [44] = biological target: GlcNAc(b1-3)Gal(b1-4)GlcNAc(b1-3)Gal(b1-4)GlcNAc(b1-3)Gal(b1-4)GlcNAc(b1-3)Gal(b1-4)GlcNAc(b1-2)Man(a1-3)[GlcNAc(b1-3)Gal(b1-4)GlcNAc(b1-3)Gal(b1-4)GlcNAc(b1-3)Gal(b1-4)GlcNAc(b1-3)Gal(b1-4)GlcNAc(b1-2)Man(a1-6)]Man(b1-4)GlcNAc(b1-4)GlcNAc
# Method in brief: as §1
# [45] = biological target: GlcNAc(b1-3)Gal(b1-4)GlcNAc(b1-3)Gal(b1-4)GlcNAc(b1-3)Gal(b1-4)GlcNAc(b1-3)Gal(b1-4)GlcNAc(b1-2)Man(a1-3)[GlcNAc(b1-3)Gal(b1-4)GlcNAc(b1-3)Gal(b1-4)GlcNAc(b1-3)Gal(b1-4)GlcNAc(b1-3)Gal(b1-4)GlcNAc(b1-2)Man(a1-6)]Man(b1-4)GlcNAc(b1-4)[Fuc(a1-6)]GlcNAc
# Method in brief: as §1
binder,measurement,setting,value
B1,glycan array binding signal (z-score),[1],-0.729
same,glycan array binding signal (z-score),[2],-0.602
same,glycan array binding signal (z-score),[3],0.198
same,glycan array binding signal (z-score),[4],-0.434
same,glycan array binding signal (z-score),[5],0.078
same,glycan array binding signal (z-score),[6],-0.915
same,glycan array binding signal (z-score),[7],0.361
same,glycan array binding signal (z-score),[8],-0.831
same,glycan array binding signal (z-score),[9],0.373
same,glycan array binding signal (z-score),[10],0.058
same,glycan array binding signal (z-score),[11],2.64
same,glycan array binding signal (z-score),[12],2.89
same,glycan array binding signal (z-score),[13],3.58
same,glycan array binding signal (z-score),[14],3.77
same,glycan array binding signal (z-score),[15],1.86
same,glycan array binding signal (z-score),[16],-0.357
same,glycan array binding signal (z-score),[17],-0.464
same,glycan array binding signal (z-score),[18],-0.272
same,glycan array binding signal (z-score),[19],0.105
same,glycan array binding signal (z-score),[20],-0.863
same,glycan array binding signal (z-score),[21],0.117
same,glycan array binding signal (z-score),[22],0.184
same,glycan array binding signal (z-score),[23],-0.157
same,glycan array binding signal (z-score),[24],-0.432
same,glycan array binding signal (z-score),[25],-1.21
same,glycan array binding signal (z-score),[26],-0.169
same,glycan array binding signal (z-score),[27],0.441
same,glycan array binding signal (z-score),[28],-0.56
same,glycan array binding signal (z-score),[29],-0.287
same,glycan array binding signal (z-score),[30],-0.004
same,glycan array binding signal (z-score),[31],-0.517
same,glycan array binding signal (z-score),[32],0.151
same,glycan array binding signal (z-score),[33],-0.299
same,glycan array binding signal (z-score),[34],0.395
same,glycan array binding signal (z-score),[35],1.67
same,glycan array binding signal (z-score),[36],0.915
same,glycan array binding signal (z-score),[37],-0.698
same,glycan array binding signal (z-score),[38],1.4
same,glycan array binding signal (z-score),[39],2.48
same,glycan array binding signal (z-score),[40],0.798
same,glycan array binding signal (z-score),[41],0.628
same,glycan array binding signal (z-score),[42],2.39
same,glycan array binding signal (z-score),[43],-0.301
same,glycan array binding signal (z-score),[44],1.29
same,glycan array binding signal (z-score),[45],0.616

# In another format: entries from further up
binder	measurement	setting	value
B1	glycan array binding signal (z-score)	[27]	0.441
same	glycan array binding signal (z-score)	[28]	-0.56
